# Experimental data reported in a protein production outcome set (Wang et al. 2014).
# Assay: label from the status in PepcDB records
row,Sequence,protein production
1,MGRRPGVDGGIRPDRPAAPHPRLHRPDGCTPGGGAGPGGRHLRWGGRWWRKRVKCAALFYPPGISAMPGTSVSDLSTATAVDAPALLPLPVARPSAPAVVRGKLYIKTHGCQMNEYDSAKMADVLAASEGLELTDNPEEADVVLVNTCSIREKAQEKVFSQLGRWKALKAGGKPVIIGVGGCVASQEGEAIVKRAPYVDLVFGPQTLHRLPELIRARRESGKSQVDISFPEIEKFDRLPEPRAEGPSAFVSIMEGCSKYCSFCVVPYTRGEEVSRPFEDVLVEVAQLAAQGVREINLLGQNVNAYRGAYGADAGDPAQYADLGLLIRTIAQIEGIGRIRFTTSHPLEFSDSLVDAYRDVPQLANYLHLPVQAGSDRILSAMKRGYTALEFKSRIRKLRAVRPDISISSDFIVGFPGETEADFEKTMKLIEDVGFDQSFSFVYSRRPGTPASDLQDDTPETVKQARLARLQAHISAHAASISQSMVGSVQRVLVEGPSRRDPNELTGKSENMRPVNFPGNPRLIGQFVDVLITEAMSNSLRGRIQLDDSAH,failed
2,MFGFKKAASKAEDAARMVRQLESVLDHADNLIMLCDTTRDNTIFYMNQTARDVLGRHREMMNQKFRAGVDVNRAHGHSIHQFHRDPEHNRRILADLASGKIPQHTAMIPVGEVMFETKVFPIWDSANPSQLLCFMASFQDVSSEIRAQKLQEQGNQRRDFLEARVNELSENMQAMSATIQNVAVQTASASESAELMLGEGRKGAGIVSETSSGMKNVGGMVRDTADSLESLGQRSETIGQIVNVIKDIADQTNLLALNAAIEAARAGEMGRGFAVVADEVRKLAERTTKATQEIGDMIRDIQNEVKQNVDAIERGRQQVDATENDFQRAEQALGIIVGEINNMRDFVVQIANAAEEQAATSQDIADKLAEIVRQS,failed
3,MASFDEAPPGNAKAGEKIFRTKCAQCHTVEAGAGHKQGPNLNGLFGRQSGTTAGYSYSAANKNKAVEWEEKALYDYLLNPKKYIPGTKMVFPGLKKPQDRADLIAYLKESTAPK,failed
4,MCGGAVISDYIAPEKIARSSGKSSWRSNGVFDCSIYDFDGNFDELESDEPFVFSSTHKHHASGSASDGKKKQSSRYKGIRRRPWGRWAAEIRDPIKGVRVWLGTFNTAEEAARAYDLEAKRIRGAKAKLNFPNESSGKRKAKAKTVQQVEENHEADLDVAVVSSAPSSSCLDFLWEENNPDTLLIDTQWLEDIIMGDANKKHEPNDSEEANNVDASLLSEELLAFENQTEYFSQMPFTEGNCDSSTSLSSLFDGGNDMGLWS,failed
5,MSTEKTKLGVHSEAGKLRKVMVCSPGLAHQRLTPSNCDELLFDDVIWVNQAKRDHFDFVTKMRERGIDVLEMHNLLTETIQNPEALKWILDRKITADSVGLGLTSELRSWLESLEPRKLAEYLIGGVAADDLPASEGANILKMYREYLGHSSFLLPPLPNTQFTRDTTCWIYGGVTLNPMYWPARRQETLLTTAIYKFHPEFANAEFEIWYGDPDKDHGSSTLEGGDVMPIGNGVVLIGMGERSSRQAIGQVAQSLFAKGAAERVIVAGLPKSRAAMHLDTVFSFCDRDLVTVFPEVVKEIVPFSLRPDPSSPYGMNIRREEKTFLEVVAESLGLKKLRVVETGGNSFAAEREQWDDGNNVVCLEPGVVVGYDRNTYTNTLLRKAGVEVITISASELGRGRGGGHCMTCPIVRDPIDY,not failed
6,MAMMVENSYGGYGGGGGERIQLMVEGQGKAVPAPFLTKTYQLVDDPATDHVVSWGDDDTTFVVWRPPEFARDLLPNYFKHNNFSSFVRQLNTYGFRKIVPDRWEFANEFFKRGEKHLLCEIHRRKTSQMIPQQHSPFMSHHHAPPQIPFSGGSFFPLPPPRVTTPEEDHYWCDDSPPSRPRVIPQQIDTAAQVTALSEDNERLRRSNTVLMSELAHMKKLYNDIIYFVQNHVKPVAPSNNSSYLSSFLQKQQQQQPPTLDYYNTATVNATNLNALNSSPPTSQSSITVLEDDHTNHHDQSNMRKTKLFGVSLPSSKKRSHHFSDQTSKTRLVLDQSDLALNLMTASTR,failed
7,RFTWSMKTTSSMDPSDMMREIRKVLDANNCDYEQRERFLLFCVHGDGHAENLVQWEMEVCKLPRLSLNGVRFKRISGTSIAFKNIASKIANELKL,not failed
8,MNLEQALSGRLPIVYSDRFLDHDTGLGHPERPERLSATVTHLRSQPWSTALDWYLPTDLATRSPLPWIETCHSLHYIDSVQHLAERGGGSLDPDTPCSAASYEVALLAVNAWLDGIDRLLTRQSQAAFALTRPPGHHALATHGMGFCLFGNAAIAARYALAQGLTKVAIVDWDVHHGNGTQALVEQQPAIAYVSLHQSPAYPGTGSASETGFYENVRNLPLPPGSDGQDYRQCFETIVLPFLRAWQPQLLIVSAGYDAAAADPLANMRLQPADYGALTQQLRSLQIPILFGLEGGYDLPALSASVAATLAACLEPPSAPKQSG,failed
9,EGFIEALAEPAALAAADGRVLAANGPWREVMGEQRRLPKGVAGSSLFAALVQARQGQMAEGMLSAGGTDYTAKVSRLAGGRLMIRLAPIVVAEPVVEDASPAPVAERAAPPPSSLDAFAGASPFGAALLEGLEPFTSRVLETNPALTTMTGAKAGVLFGDLIDAASRAEAETRLNEGRAGPYEVRLARDPSRIAHLYLYRAEGRLVAYMIDVSEQKQIELQLSQAQKMQAIGQLAGGVAHDFNNLLTAI,failed
10,MNKQRGTYSEVSLAQDPKRQQRKLKGNKISISGTKQEIFQVELNLQNASSDHQGNDKTYHCKGLLPPPEKLTAEVLGIICIVLMATVLKTIVLIPCIGVLEQNNFSLNRRMQKARHCGHCPEEWITYSNSCYYIGKERRTWEERVCWPVLRRTLICFL,failed
11,MFGLRTRNQEAESEYRRFIKGLSDSMAMIEFDTRGIILNANDLFLSCVGYTREAIVGKHHSIFCDRGYVQSPRYQQFWDDLKMGKHKRGTFERLTSQRERLVLEASYFPIESEHGQIEKVVKIASDVTQQRLESEQKEAILNALDLSLATIEFDREGYILTANQNFLKTLGYELSDVQGKHHKLFCFDDFYQENPGFWKDLAAGQFKSGQFLRRSASGDKVYIEATYNPIFDPAGNVIKVVKFASDITDKVQRDLNISQAIADSSFIARNASEEATSNVCGAEHSLNEFRTMIEEVLRAVTACDDKVQELFKTSQQVTEIVKVIDSIASQTNLLALNAAIEAARAGEHGRGFAVVADEVRTLATRTSTSIDEINHIVLSNQSLTTETRSFIEVINQGFLSSMSKLLEVDEFMKSIDEGSHLTVESISALRAIVNQDAHLHLNSASNG,failed
12,MPGKNSKKMIGACVVTAALLCAPSALKAEGMLSHYTCVADAIQKDNRPEPAKRLFRSQAVENEIIRVQKLLRNSKLAWMFTNCFPNTLDTTVHFRKGKDGKPDTFVYTGDIHAMWLRDSGAQVWPYVQLANSDPELKTMLAGVINRQFKCINIDPYANAFNDGPKGGEWMSDLTDMKPELHERKWEIDSLCYPLRLAYQYWKTTGDTSIFDEEWIQAITNILRTFKEQQRKDGVGPYKFQRKTERALDTVTNDGLGNPVKPVGLIVSTFRPSDDATTLQYLVPSNFFAVSSLRKAAEILTTVNKKTALANECKALANEVETALKKYAVYNHPKYGKIYAFEVDGFGNHMLMDDANVPSLLAMPYLGDVSIDDPIYQNTRRFVWSLDNPYFFKGKAGEGIGGPHIGYDMVWPMSIMMKAFTSKDDAEIKSCIEMLMNTDAGTGFMHESFHKDNPEKFTRAWFAWQNTLFGELILKLVNEGKVDMLNSIQLEHHHHHH,not failed
